1 sequence from US6294372 can be followed below.

The subject of the data set is Integration host factor (IHF, HimA/HimD heterodimer). The data set is described as follows: EMSA. Conditions: 50 and 100 pmol IHF; 75 mM KCl, pH 8.0, 0 C; purified native protein; label: 32P. For orientation: Mobility shift assays separate free from complexed probe on a gel.

Regarding “AGATCTTTTACGCCGATTTGTAAGTGGTTGTTTTTTTAGTGTGTTTTTTATTTACCTGTCGCATCCAGGATGAAAAAACGTTGTCGCATCCTGGATGCGACAACACGCAACAAGGTGTTGCACAGATGTGTCATGATGGCTTAGATTTGAACCAACGTTAGTGCATGGGATTTTCAGAGGGAAAAAATCATGTTTATTGATTCAGAAAAACGA (double strand)”, the binding result is given as “binds”.
